Measured values published in US8905235B2, “Polymeric reagents comprising a terminal vinylic group and conjugates formed therefrom” (Nektar Therapeutics, priority 2006, dated 2014).
The name of at least one read-out is uncertain.

Test: Release of PEG2-fulvene-GSH (thioether) conjugate, first order plot, HPLC size exclusion chromatography
Assay type: physicochemical
Conditions: 37° C., one experiment; for release t1/2: 25 mM HEPES pH 7.4 + excess 2-mercaptoethanol (5 microL/mL PEG solution)

| Substance | release t1/2 [h] | release rate relative to other conjugate (t1/2 not calculated) (25 mM HEPES pH 7.4 + excess 2-mercaptoethanol, data not shown) |
| --- | --- | --- |
| 2,7-Di(mPEG10,000Da-carboxyamide)dibenzofulvene-L-glutathione (thioether) conjugate | 30 |  |
| 4-(mPEG10,000Da-carboxyamide)-7-(3-(mPEG10,000Da)carbamoyl-propyl)dibenzofulvene-L-glutathione (thioether) conjugate |  | observed to release more slowly than the 2,7-Di(mPEG(10,000)-amidoglutaric amide)dibenzofulvene-L-glutathione (thioether) conjugate |
| 4-(mPEG10,000Da-carboxyamide)-7-(mPEG10,000Da amidoglutaric amide)dibenzofulvene-L-glutathione (thioether) conjugate | 113 |  |
| 2,7-di(mPEG10,000Da-amidoglutaric amide)dibenzofulvene-L-glutathione (thioether) conjugate | 463 |  |
